No constants are given. Whether binding was seen depends on the method and setting. In cells and extracts the contact can be indirect. Some binding calls cover weakened binding; strength is not graded here.
What was measured:
[1] = target: Merlin^S13A, FLAG-tagged, doxycycline-inducible (human) (UniProt P35240); experiment: co-IP; FLAG immunoprecipitation (FLAG antibody beads, 4 h at 4 °C) from M10G lysates in JIES buffer (100 mM NaCl2, 20 mM Tris-HCl pH 7.4, 5 mM MgCl2, 0.5% NP40), doxycycline 1 μg/ml; immunoblot for β-catenin
[2] = target: Merlin^S13D, FLAG-tagged, doxycycline-inducible (human) (UniProt P35240); experiment: as above

By UniProt entry, the sequences of proteins in these tests, tags left out. Where a name states a change or a piece, a line headed by the entry shows the natural chain unless it says otherwise.
UniProt P35240: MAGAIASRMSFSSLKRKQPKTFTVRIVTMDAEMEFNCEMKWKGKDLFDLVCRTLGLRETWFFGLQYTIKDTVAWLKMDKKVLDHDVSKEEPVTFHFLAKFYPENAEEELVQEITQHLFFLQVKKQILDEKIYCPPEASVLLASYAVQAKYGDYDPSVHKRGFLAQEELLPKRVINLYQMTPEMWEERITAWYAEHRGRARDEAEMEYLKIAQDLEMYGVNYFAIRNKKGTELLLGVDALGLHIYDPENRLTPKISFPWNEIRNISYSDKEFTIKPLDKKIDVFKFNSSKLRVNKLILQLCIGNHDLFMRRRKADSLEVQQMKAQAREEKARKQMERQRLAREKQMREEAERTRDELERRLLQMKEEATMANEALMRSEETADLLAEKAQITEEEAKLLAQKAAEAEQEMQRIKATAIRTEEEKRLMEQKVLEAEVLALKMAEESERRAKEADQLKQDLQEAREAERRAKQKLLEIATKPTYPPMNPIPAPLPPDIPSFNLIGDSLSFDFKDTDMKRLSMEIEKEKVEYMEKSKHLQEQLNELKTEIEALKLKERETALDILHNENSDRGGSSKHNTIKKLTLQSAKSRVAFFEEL
UniProt P35222: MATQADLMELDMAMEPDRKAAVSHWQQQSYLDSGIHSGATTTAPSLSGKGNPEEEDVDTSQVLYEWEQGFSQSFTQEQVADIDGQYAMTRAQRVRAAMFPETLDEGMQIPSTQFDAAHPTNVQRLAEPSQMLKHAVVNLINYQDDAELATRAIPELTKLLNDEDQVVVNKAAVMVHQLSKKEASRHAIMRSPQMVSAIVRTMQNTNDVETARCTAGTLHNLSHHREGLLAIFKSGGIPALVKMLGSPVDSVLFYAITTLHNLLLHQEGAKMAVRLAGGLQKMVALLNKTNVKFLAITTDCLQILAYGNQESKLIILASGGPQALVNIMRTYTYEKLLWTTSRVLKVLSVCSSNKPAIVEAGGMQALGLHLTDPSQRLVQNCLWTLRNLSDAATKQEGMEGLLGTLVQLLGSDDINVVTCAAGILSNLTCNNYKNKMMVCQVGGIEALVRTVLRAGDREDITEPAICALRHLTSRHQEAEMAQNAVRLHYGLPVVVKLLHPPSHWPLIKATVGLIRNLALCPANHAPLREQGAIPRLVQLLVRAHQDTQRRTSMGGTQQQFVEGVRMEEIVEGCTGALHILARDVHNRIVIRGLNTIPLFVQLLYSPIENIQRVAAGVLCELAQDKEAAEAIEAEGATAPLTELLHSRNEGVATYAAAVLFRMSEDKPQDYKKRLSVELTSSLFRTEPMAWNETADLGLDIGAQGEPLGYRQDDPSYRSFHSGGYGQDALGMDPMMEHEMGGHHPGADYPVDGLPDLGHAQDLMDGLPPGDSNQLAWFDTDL

- binding [1]: no binding
- binding [2]: binds
Substance: β-catenin (endogenous, M10G meningioma cells) (from UniProt P35222 1-781)

— article PMC11383945
